Literature values, collected in PMC10301896 (Pharmaceutics, 2023).
Where two headings read alike, the source gives them in different places.

Settings: cited from earlier work

O=C(O)c1cn(C2CC2)c2cc(N3CCNCC3)c(F)cc2c1=O [CFX, ciprofloxacin]
24-h urinary excretion (after the 100-mg intravenous dose): 42.2% | 24-h urinary excretion (after the 500-mg twice-daily oral dose during steady state): 42.5% | Fecal recovery, % of the dose: approximately 15%
